Primary screen of a compound library

Data taken from ChEMBL document CHEMBL3988442, “University of Dundee, Small-Polar-MMV Screening Library” (2021).

Mtb cholesterol medium: 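Whole-cell growth test on Mycobacterium tuberculosis, read after 4 days in a medium based on cholesterol and the lipid DPPC; the read-out is not stated. Compounds at 50 µM. Direction is inferred from retests: higher values go with more growth inhibition. Of about 69,000 compounds tested this way, about 370 (0.54%) reached 50% or more in at least one test.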
Mtb glucose medium: 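Whole-cell growth test on Mycobacterium tuberculosis, read after 3 days in glucose-containing 7H9 medium; the read-out is not stated. Concentration: 50 µM. Higher reads as more growth inhibition (inferred: compounds with an IC50 in retests scored well above the rest). Of about 69,000 compounds tested this way, about 760 (1.1%) reached 50% or more in at least one test.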

Results are given as percent effect. The record does not define 0% and 100%; most values in the screen are far below 50% and negative numbers occur (in some assays of this library far below -100). This is an unselected part of the compounds tested. Two or more numbers in one place are separate tests of the same structure; such repeats can differ widely.

SMILES | Mtb cholesterol medium | Mtb glucose medium
CCOc1ccc(C(=O)CCC(=O)N(C)Cc2snnc2C)cc1C | 19.34% | -9.703%
CC1=C[C@@H](CN2CCCC2)[C@H](C(C)C)C[C@H]1Cc1nnc(C)o1 | 20.09% | 34.43% & 34.07%
CCNC(=O)Nc1cccc(F)c1C(=O)NC1CCCC1 | 1.141% | 16.45%
CCn1nccc1CNC(=O)C1CCC1 | -3.042% | 5.164%
O=c1[nH]cnc2c1CCN(S(=O)(=O)c1cccc(OC(F)(F)F)c1)C2 | -12.95% | 0.03162%
CCn1cc(S(=O)(=O)N2CCCC2c2ccc(C)o2)cn1 (configuration not stated) | -7.344% | -9.491%
O=C(CN1CCN(c2ncnc3c2CCNCC3)CC1)N1CCCCC1 | 6.003% | 33.43%
CC(C)NC(=O)N1CCC2(CC1)NC(=O)CC2c1ccncc1.O=C(O)C(F)(F)F (configuration not stated) | 30.89% | -2.915% & -6.983%
O=C(Nc1nccs1)N1CCCC(N2CCNC2=O)C1 (configuration not stated) | -19.21% | 5.825% & -2.691%
[H][C@]12CCN(C(=O)CC(C)C)CC[C@@]1([H])S(=O)(=O)N(CC(=O)N(C)C)C2 | 22.22% & -12.36% | -9.911% & 1.319%
O=C1CNc2ncnc(Nc3cnn(Cc4ccccc4)c3)c2N1 | -23.97% | -27.54%
CCCc1cc(NC(=O)c2cc(N3CCNC3=O)c(F)cc2F)n[nH]1 | -23.3% | -25.25%
Cc1nc(C2CCCN(C(=O)CCCn3cccn3)C2)no1 (configuration not stated) | 28.85% | 2.585%
Nc1nccnc1C(=O)N1CCN(CCOc2ccccc2)CC1 | 10.68% | 13.98%
CN(C)C(=O)NCc1nnn2c1CN(CC1CCOCC1)CCC2.O=C(O)C(F)(F)F | 1.454% | -4.414% & -9.408%
Cn1cccc1C(=O)N1CCc2ncc(Cn3cccn3)n2CC1 | 12.3% | 23.82%
CCSCCC(=O)NCc1cnn(-c2ccc(F)cc2F)c1 | -39.04% | -6.598%
COc1ccccc1CCN(C)C(C)c1nc(-c2cccnc2)no1 (configuration not stated) | -27.74% | -36.83%
Cc1noc(C)c1CN(C)C(=O)Cn1c(=O)n(C)c2ccccc21 | 1.911% | 8.677%
Cc1cccc(NC(=O)[C@@H]2CCCN2Cc2ccccc2C#N)n1 | -5.492% & -2.468% | 3.648%
N#Cc1ccnc(N2CCN(C(=O)c3ccc4c(c3)CCO4)CC2)c1 | -2.597% | 9.417%
Cc1ccccc1C(=O)Nc1cnn(CC(=O)NC2CCCC2)c1 | -2.937% | 12.42%
CCOc1ccc2ccccc2c1CNCC1CCS(=O)(=O)C1.Cl (configuration not stated) | -3.133% & -10.23% | -22.57%
CN(Cc1ccccn1)C(=O)Nc1cc(C(F)(F)F)c[nH]c1=O | 14.62% | 12.84%
CCNS(=O)(=O)C1CCN(C(=O)c2ccc(CC)o2)C1 (configuration not stated) | -10.76% & -6.001% | 4.413%
CN1CC(=O)N(c2cccc(F)c2)CC12CCNC2 (configuration not stated) | -10.71% | -13.14%
Cc1cc(C)c(C(=O)N2CCCC(C(=O)CCc3ccccc3)C2)cn1 (configuration not stated) | -2.056% | 25.75%
COCc1ccc(CNc2cncc(-n3cccn3)n2)cc1 | 20.88% | 15.32%
CNS(=O)(=O)c1ccc(CNC(=O)c2ccccn2)cc1 | -13.2% | -17.04%
CCOC(=O)CCC(=O)N1CCC(Oc2ccc(C(F)(F)F)cn2)CC1 | 24.59% | 22.85%
O=C(O)C(F)(F)F.O=C(O)C(F)(F)F.O=C(c1ccncc1)N1CCCn2c(CN3CCCC3)nnc2C1 | -3.416% & -12.98% | -26.79%
CSCCCNC(=O)C1CCC(=O)N(C2CCCC2)C1 (configuration not stated) | 10.54% | 27.66%
[H][C@@]12CC[C@@]([H])(C1)N(CC(=O)N1CCc3c(nc(N(C)C)nc3N(C)C)C1)C2 | 19.6% | -0.4519%
COc1ncccc1C(=O)NCC(C)Oc1cccnc1 (configuration not stated) | 31.84% | -8.633%
CN(C)CCn1ccnc1C1CCCN(c2nccc3ccccc23)C1 (configuration not stated) | 19.33% | 19.43% & -0.3361%
CC(C)c1cc(N2CCC(NS(C)(=O)=O)C2)nc(C(C)C)n1 (configuration not stated) | 6.367% | -7.566%
O=C(c1ccccn1)N1CCC(c2nc(O)cc(-c3ccncc3)n2)C1 (configuration not stated) | -8.269% | -14.94%
CNC(=O)c1cccnc1N1CCC(Oc2ccc(F)cc2)CC1 | -5.633% | 31.3%
CCN(CC)Cc1ccc(C(=O)N2CCCC2Cn2cccn2)o1 (configuration not stated) | -0.2743% | -13.88%
CCN(C)C(=O)Nc1cc(F)c(OC)cc1F | -11.39% | -52.14%
C[C@H](NC(=O)Cc1csc(-c2cccc(Cl)c2)n1)C(=O)O | -7.183% | 1.825%
CSc1ccccc1C(C(=O)O)N1CCN(Cc2ccccn2)CC1 (configuration not stated) | -1.651% | -10.9%
Cc1ncc(C(=O)N2CCC(N3CCc4ccccc4C3)CC2)c(O)n1 | -31.5% | -22.46%
CN(CCCC1CCCC1)C(=O)c1cc(CN2CCC(O)CC2)on1 | -2.339% | -44.53%
Cc1noc(C)c1CC(=O)NCC(C(C)C)N1CCOCC1 (configuration not stated) | -7.266% | 12.94%
O=C(Cn1ccc(=O)cc1)NCc1ccc2sccc2c1 | -27.67% | -8.585%
[H][C@@]12CS(=O)(=O)C[C@]1([H])N(C(=O)c1cn3ccsc3n1)CCN2C(=O)CC | 15.26% | 5.179% & -1.039%
CCN(C1CCS(=O)(=O)C1)S(=O)(=O)c1cccc2cc(C)cnc12 (configuration not stated) | -17.51% | -0.4049%
[H][C@]12CCC[C@@]1(COCC)CN(C(=O)c1ccc(OC)cc1)C2 | -3.989% | -24.59%
COc1ccc(C)cc1CNC(=O)C1=NN(c2ccccc2)C(=O)CN1 | 7.599% | 4.46% & 6.832%
COc1ccc(C(C)Nc2ncc(C(N)=O)cc2Cl)cc1OC (configuration not stated) | -9.14% | 21.39%
Cc1cc(C)n(C2CCCN(C(=O)c3ccc(NC4CC4)nc3)C2)n1 (configuration not stated) | 0.357% | -3.722%
CN1CCN(CC(NCc2ccc(F)cc2)c2ccccc2)CC1 (configuration not stated) | -8.541% | -17.62%
O=C(NCC1OCCc2cn(CC3CC3)nc21)c1ccsc1 (configuration not stated) | 0.2668% | 2.853%
O=C(Nc1ccc2c(c1)OCO2)N1CCN(CCn2ccnc2)CC1 | 2.623% | 15.61%
O=C(O)C(F)(F)F.c1ccc(CN2Cc3nccn3CC(Cn3cncn3)C2)nc1 (configuration not stated) | -7.002% | -4.143%
N#CC1CCN(C(=O)NCCc2ccc(Cl)s2)CC1 | -11.2% | 18.4%
Cn1cc(N2CC3(CCN(S(C)(=O)=O)C3)CC2=O)cn1 (configuration not stated) | -12.39% | 5.391% & -3.317%
Cc1nccc(CNc2cc(N3CCCC3CO)ncn2)n1 (configuration not stated) | -1.454% | 0.03176%
CN1CCN(c2ccc(NC(=O)c3cccs3)c(C(F)(F)F)c2)CC1 | -7.45% | -15.89%
CN(C)c1ccc(NC(=O)N2CCc3sccc3C2)cn1 | -19.95% | -10.42%
Cc1cc(C)cc(C(C(=O)O)N(C)CCCN2CCOCC2)c1 (configuration not stated) | 4.166% & 7.438% | 15.93%
COCCC(=O)N1CCCC2(CCN(c3ccccc3)C2=O)C1 (configuration not stated) | 7.652% | 12.53%
Cc1c(Br)cccc1C(=O)NCc1cnn(C)c1 | -23.67% | -28.57%
CSc1ccsc1C(=O)NS(=O)(=O)c1cnn(C)c1 | 11.84% | 1.027%
Cc1ccc(=O)n(CC2(O)CCN(Cc3cnn(C)c3)CC2)n1 | -2.703% | -4.636%
CC(CO)NS(=O)(=O)c1cccc(C(C)C)c1 (configuration not stated) | 26.62% | 18.84% & 5.916%
CCn1ncnc1CN1CCC(CNC(=O)c2cccc(C)n2)C1 (configuration not stated) | 16.13% | 8.989%
CC(C)n1[nH]c(=O)c2c1NC(=O)CC2c1cccc2cccnc12 (configuration not stated) | -37.84% | -33.52%
CN(C)CC1CN(c2ccc(C#N)cn2)CCO1 (configuration not stated) | 8.376% | -11.35%
Cc1ccccc1N1CC2(CCN(Cc3nccn3C)C2)CC1=O.O=C(O)C(F)(F)F (configuration not stated) | -1.751% & -11.66% | -29.45%
Cc1nn(C)cc1-c1cc(-c2cn(C)nc2C)n(CC(=O)NC2CC2)n1 | 2.496% | 4.926%
Cc1cc2ccccc2n1CCC(=O)N1CCC2(CC1)CNC(=O)C2 | -9.526% | -14.13%
O=S(=O)(CCO)CCc1ccccc1Cl | 1.421% | -11.02% & -3.015%
CCc1[nH]n(C)c(=N)c1-c1ccc2c(c1)OCO2 | -7.607% | -14.83%
CC1Cc2ccccc2N1Cc1occc1C(=O)NCC(=O)N(C)C (configuration not stated) | -8.041% & 2.382% | 23.42%
Cc1noc(C(C)C)c1C(=O)NCCCN1CCC(C)CC1 | -23.42% | -30.79%
CC(C)Cc1nc(OCC(=O)O)c(C#N)c2c1CCCC2 | -13.72% | 4.627%